Some results were stated once for a whole list of compounds, not compound by compound.
The molecules below were run against T1, Catalytic domain MMP-2 (Homo sapiens, UniProt P08253) (assay: Inhibition of MMP-2 (fluorogenic peptide cleavage)). Details: relative to PCP IC50.
T1 construct: Catalytic domain MMP-2 and MMP-9 were prepared at Pfizer Central Research; made in house
Type: biochemical

Sequences of proteins named here, by UniProt entry; tags and fusion partners are left off. Residues count along the entry.
UniProt P08253, 110-446 limits assumed, species assumed: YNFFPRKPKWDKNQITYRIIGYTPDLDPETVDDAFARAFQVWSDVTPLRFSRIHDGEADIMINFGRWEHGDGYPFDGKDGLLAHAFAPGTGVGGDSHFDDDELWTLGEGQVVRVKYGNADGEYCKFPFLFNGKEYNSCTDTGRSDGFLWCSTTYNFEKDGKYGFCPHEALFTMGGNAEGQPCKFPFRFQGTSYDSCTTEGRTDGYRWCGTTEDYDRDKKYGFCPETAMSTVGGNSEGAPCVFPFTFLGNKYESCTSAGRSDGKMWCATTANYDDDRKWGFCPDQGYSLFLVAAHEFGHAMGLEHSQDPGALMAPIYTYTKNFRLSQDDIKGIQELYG

| Compound | selectivity vs MMP-2 |
| --- | --- |
| CC(C)NC(=O)c1noc([C@H](CCCC2CCCCC2)CC(=O)NO)n1 [Example 5, 5-{(1R)-4-Cyclohexyl-1-[2-(hydroxyamino)-2-oxoethyl]butyl}-N-isopropyl-1,2,4-oxadiazole-3-carboxamide] | more than 100 fold |
| COc1ccc(CNC(=O)c2noc([C@H](CCCC3CCCCC3)CC(=O)NO)n2)cc1 [Example 9, 5-{(1R)-4-Cyclohexyl-1-[2-(hydroxyamino)-2-oxoethyl]butyl}-N-(4-methoxybenzyl)-1,2,4-oxadiazole-3-carboxamide] | more than 100 fold |
| O=C(O)CNC(=O)c1noc([C@H](CCCC2CCCCC2)CC(=O)NO)n1 [Example 11, 2-{[(5-{(1R)-4-Cyclohexyl-1-[2-(hydroxyamino)-2-oxoethyl]butyl}-1,2,4-oxadiazol-3-yl)carbonyl]amino}acetic Acid] | more than 100 fold |
| COc1ccccc1CNC(=O)c1noc([C@H](CCCC2CCCCC2)CC(=O)NO)n1 [Example 8, 5-{(1R)-4-Cyclohexyl-1-[2-(hydroxyamino)-2-oxoethyl]butyl}-N-(2-methoxybenzyl)-1,2,4-oxadiazole-3-carboxamide] | more than 100 fold |
| O=C(C[C@@H](CCCC1CCCCC1)c1nc(C(=O)NC2CCC2)no1)NO [Example 7, N-Cyclobutyl-5-{(1R)-4-cyclohexyl-1-[2-(hydroxyamino)-2-oxoethyl]butyl}-1,2,4-oxadiazole-3-carboxamide] | more than 100 fold |

— patent US6897306B2, “3-heterocyclylpropanohydroxamic acids” (Pfizer Products, Inc., priority 1999, dated 2005)
